For assay [1], the target named is PINK1 (PTEN-induced kinase 1), endogenous in HCT116 cells (human (endogenous in HCT116)) (UniProt Q9BXM7). In words: co-IP; co-IP of PINK1 with ATR in whole cell extracts of HCT116 cells, with control siRNA, siATR or the ATR inhibitor VE821; NETN buffer, 3 h at 4°C.
Assay [2] shares this target. In words: co-IP; IP with a PINK1 antibody from cytosolic and mitochondrial fractions of HCT116 cells, Western blot; NETN buffer (50 mM Tris-HCl pH 8.0, 150 mM NaCl, 1% NP-40), 3 h at 4°C.
Assay [3] deals with HSP90α (UniProt P07900). In words: co-IP; IP with the HSP90α antibody, Western blot; cells not told in the text (Supplementary Fig. S4C and D).
The target in assay [4] is FLAG-ATR-WT (HEK293T) (UniProt Q13535). In words: co-IP; IP with the FLAG antibody from lysates of transfected HEK293T cells, Western blot; NETN buffer, 3 h at 4°C.
For assay [5], the target named is FLAG-ATR-WT (U2OS) (UniProt Q13535). In words: proximity ligation; U2OS cells co-transfected with FLAG-ATR-WT and GFP-PINK1-FL or GFP-PINK1-D3, Duolink In Situ Red kit, MitoTracker staining.
For assay [6], the target named is ATR, endogenous in N2A cells (mouse (endogenous in N2A)) (UniProt Q9JKK8). The experiment in a line: co-IP + native gel or EMSA; 1D BN-PAGE of lysate of mitochondria isolated from N2A cells (1% Triton X-100 sample buffer) and IP with a rabbit anti-ATR antibody, IP samples heated at 99°C for 10 min; blots for ATR, TOM22, PINK1.
For assay [7], the target named is ATR, endogenous in U2OS cells (human (endogenous in U2OS)) (UniProt Q13535). The experiment in a line: proximity ligation; endogenous proteins in U2OS cells (shNC or shATR), Duolink In Situ Red kit, co-staining with MitoTracker; IgG controls.
The target in assay [8] is FLAG-ATR-WT (HEK293T) (UniProt Q13535). In words: co-IP; IP with the FLAG antibody from lysates of transfected HEK293T cells, Western blot; NETN buffer, 3 h at 4°C. The source holds these as a separate data set.
Assay [9] has the same target. In words: co-IP; IP with the FLAG antibody from cells transfected with FLAG-ATR and HA-TIM23 (HEK293T in the text, HCT116 in the legend), Western blot; NETN buffer, 3 h at 4°C.

Chains of the proteins cited; added tags and fusions are not shown. Lines headed by an entry give the natural chain unless they say otherwise; changes in a name come on top. Residues count along the entry.
UniProt Q9BXM7, residues 78-581: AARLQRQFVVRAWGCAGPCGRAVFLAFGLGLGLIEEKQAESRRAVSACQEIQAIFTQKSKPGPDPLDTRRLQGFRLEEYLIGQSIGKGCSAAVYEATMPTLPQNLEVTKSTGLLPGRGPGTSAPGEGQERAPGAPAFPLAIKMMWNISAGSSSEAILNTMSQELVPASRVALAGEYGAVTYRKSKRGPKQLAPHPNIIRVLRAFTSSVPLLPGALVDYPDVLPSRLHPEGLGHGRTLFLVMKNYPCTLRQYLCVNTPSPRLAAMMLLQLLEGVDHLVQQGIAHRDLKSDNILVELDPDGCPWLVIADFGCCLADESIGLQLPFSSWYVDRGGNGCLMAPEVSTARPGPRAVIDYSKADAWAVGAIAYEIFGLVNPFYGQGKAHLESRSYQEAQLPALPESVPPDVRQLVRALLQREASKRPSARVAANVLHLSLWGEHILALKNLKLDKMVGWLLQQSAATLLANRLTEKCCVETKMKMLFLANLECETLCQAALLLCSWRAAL
UniProt Q13535: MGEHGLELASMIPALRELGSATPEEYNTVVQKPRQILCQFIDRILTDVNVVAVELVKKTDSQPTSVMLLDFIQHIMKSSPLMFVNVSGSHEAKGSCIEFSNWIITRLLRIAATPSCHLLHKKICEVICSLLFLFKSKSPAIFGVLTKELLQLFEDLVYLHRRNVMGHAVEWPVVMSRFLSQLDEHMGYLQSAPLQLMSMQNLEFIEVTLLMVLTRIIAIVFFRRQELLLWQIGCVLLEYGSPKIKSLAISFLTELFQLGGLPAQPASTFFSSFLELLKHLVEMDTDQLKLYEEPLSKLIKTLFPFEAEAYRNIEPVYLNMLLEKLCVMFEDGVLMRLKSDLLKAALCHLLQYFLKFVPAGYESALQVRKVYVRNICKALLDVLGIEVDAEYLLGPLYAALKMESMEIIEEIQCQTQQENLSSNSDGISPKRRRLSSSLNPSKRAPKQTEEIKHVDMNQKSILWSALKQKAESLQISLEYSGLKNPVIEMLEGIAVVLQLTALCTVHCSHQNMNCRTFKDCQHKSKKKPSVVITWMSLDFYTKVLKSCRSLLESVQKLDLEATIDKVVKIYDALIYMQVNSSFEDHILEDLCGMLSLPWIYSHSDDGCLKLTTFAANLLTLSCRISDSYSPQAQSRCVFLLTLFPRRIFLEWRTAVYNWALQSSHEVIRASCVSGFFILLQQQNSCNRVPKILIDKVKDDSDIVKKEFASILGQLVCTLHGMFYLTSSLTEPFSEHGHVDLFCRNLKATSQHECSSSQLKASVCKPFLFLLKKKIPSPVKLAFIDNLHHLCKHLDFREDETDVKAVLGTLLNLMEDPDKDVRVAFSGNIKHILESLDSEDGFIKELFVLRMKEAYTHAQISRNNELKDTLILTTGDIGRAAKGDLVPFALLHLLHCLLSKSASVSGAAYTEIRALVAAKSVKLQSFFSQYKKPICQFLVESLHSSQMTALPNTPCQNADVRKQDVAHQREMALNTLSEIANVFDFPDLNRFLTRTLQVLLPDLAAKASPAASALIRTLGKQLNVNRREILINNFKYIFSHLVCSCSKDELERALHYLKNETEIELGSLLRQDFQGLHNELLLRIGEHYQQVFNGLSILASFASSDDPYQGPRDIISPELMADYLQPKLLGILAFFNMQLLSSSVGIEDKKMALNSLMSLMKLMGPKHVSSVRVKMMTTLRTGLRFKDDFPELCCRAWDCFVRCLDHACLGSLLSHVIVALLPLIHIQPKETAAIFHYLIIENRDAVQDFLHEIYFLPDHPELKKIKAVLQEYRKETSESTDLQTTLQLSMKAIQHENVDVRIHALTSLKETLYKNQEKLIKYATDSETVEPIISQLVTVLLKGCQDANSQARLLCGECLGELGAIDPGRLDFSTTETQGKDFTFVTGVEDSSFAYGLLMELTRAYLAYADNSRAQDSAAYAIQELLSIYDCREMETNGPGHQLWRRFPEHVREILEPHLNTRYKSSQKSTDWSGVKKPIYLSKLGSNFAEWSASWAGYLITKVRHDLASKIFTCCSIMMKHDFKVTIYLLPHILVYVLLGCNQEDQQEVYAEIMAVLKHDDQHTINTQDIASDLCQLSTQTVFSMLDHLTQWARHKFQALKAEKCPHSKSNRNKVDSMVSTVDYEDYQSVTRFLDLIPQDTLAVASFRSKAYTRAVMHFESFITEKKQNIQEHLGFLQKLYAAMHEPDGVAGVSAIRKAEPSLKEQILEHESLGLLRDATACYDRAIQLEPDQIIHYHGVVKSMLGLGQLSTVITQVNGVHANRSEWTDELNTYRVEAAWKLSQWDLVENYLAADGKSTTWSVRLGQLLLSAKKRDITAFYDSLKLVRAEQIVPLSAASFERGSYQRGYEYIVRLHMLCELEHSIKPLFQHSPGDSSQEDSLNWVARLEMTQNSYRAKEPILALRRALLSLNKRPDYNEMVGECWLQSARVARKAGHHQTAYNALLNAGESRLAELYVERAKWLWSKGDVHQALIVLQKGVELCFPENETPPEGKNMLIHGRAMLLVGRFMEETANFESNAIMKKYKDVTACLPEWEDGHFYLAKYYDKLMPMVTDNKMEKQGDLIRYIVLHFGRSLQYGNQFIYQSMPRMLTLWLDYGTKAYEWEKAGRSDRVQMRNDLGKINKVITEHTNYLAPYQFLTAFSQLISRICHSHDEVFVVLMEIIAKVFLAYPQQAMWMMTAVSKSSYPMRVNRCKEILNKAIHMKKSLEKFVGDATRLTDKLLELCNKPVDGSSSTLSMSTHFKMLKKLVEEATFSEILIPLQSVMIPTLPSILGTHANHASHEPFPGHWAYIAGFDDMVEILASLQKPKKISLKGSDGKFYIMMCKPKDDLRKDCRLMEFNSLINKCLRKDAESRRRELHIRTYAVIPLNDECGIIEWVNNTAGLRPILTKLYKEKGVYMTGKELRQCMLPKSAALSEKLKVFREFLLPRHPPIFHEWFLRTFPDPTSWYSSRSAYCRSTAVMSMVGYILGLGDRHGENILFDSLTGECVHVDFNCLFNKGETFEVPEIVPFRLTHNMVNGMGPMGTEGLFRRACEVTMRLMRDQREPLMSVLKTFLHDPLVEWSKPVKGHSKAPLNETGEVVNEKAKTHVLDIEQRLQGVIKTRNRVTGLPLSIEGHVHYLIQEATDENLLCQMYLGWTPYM
UniProt Q9JKK8: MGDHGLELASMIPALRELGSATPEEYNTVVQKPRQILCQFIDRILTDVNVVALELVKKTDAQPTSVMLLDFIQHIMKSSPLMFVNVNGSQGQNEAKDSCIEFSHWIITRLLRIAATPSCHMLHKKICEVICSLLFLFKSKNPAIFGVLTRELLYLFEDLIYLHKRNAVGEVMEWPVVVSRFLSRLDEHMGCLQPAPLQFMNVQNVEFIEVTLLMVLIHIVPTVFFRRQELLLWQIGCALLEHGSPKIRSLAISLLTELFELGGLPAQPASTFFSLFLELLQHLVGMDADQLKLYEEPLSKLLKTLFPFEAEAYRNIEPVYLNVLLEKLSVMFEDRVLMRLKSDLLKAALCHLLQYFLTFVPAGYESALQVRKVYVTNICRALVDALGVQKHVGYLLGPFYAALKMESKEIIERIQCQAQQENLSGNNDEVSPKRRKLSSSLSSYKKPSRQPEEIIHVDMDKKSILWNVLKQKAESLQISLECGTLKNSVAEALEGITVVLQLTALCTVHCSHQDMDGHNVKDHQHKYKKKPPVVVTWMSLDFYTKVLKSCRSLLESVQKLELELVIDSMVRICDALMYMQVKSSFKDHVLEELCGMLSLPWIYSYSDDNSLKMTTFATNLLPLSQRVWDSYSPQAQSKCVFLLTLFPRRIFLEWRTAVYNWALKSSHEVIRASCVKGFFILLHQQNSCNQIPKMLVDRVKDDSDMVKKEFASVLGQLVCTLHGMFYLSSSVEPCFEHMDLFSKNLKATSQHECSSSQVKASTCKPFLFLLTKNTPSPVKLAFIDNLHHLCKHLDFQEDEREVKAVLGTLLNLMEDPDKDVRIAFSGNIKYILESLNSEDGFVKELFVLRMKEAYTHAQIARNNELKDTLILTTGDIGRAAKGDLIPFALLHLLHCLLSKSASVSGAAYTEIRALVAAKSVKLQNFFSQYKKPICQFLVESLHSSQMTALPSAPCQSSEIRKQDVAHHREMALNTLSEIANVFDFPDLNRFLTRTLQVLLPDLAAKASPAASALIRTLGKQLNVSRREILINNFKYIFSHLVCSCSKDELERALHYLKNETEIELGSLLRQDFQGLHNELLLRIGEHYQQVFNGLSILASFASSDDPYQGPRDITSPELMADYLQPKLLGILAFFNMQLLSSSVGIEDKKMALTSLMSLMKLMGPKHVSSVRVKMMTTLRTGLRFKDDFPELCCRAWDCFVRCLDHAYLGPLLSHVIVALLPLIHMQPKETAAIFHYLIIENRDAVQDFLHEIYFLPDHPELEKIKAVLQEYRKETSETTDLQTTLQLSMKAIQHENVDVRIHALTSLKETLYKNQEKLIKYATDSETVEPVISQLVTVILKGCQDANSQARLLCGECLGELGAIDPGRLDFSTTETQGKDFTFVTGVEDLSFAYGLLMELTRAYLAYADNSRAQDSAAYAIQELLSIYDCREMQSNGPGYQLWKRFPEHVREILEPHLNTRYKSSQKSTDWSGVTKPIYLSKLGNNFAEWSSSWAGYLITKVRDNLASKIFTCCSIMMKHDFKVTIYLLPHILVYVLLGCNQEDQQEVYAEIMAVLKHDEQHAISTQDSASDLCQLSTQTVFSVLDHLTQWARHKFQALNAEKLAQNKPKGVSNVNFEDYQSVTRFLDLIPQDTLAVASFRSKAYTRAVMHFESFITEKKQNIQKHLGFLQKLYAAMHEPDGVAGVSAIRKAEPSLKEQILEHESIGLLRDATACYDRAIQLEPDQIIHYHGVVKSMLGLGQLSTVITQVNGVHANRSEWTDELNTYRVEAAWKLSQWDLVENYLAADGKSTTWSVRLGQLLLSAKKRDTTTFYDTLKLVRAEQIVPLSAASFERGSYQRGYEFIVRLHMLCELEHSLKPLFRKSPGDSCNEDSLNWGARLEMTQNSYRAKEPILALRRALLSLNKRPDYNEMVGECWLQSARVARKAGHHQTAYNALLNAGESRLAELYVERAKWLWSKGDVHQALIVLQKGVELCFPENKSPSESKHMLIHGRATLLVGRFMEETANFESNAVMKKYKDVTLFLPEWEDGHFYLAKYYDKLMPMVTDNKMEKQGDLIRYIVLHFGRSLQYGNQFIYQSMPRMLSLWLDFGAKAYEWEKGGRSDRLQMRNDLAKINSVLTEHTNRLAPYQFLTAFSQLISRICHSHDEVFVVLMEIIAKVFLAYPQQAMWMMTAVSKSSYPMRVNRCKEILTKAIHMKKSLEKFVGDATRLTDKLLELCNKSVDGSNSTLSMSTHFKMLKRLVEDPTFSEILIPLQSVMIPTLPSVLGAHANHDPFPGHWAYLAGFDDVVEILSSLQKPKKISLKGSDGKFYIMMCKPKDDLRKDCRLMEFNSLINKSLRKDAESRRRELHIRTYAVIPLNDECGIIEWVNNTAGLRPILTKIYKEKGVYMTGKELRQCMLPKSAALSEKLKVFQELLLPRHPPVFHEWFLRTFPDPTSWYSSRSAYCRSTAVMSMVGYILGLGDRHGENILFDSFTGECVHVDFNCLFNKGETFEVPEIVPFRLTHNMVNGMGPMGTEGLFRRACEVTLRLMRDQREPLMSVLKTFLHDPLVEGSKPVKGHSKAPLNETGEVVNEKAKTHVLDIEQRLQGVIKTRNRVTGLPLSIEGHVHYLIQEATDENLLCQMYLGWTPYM
UniProt Q99MQ3: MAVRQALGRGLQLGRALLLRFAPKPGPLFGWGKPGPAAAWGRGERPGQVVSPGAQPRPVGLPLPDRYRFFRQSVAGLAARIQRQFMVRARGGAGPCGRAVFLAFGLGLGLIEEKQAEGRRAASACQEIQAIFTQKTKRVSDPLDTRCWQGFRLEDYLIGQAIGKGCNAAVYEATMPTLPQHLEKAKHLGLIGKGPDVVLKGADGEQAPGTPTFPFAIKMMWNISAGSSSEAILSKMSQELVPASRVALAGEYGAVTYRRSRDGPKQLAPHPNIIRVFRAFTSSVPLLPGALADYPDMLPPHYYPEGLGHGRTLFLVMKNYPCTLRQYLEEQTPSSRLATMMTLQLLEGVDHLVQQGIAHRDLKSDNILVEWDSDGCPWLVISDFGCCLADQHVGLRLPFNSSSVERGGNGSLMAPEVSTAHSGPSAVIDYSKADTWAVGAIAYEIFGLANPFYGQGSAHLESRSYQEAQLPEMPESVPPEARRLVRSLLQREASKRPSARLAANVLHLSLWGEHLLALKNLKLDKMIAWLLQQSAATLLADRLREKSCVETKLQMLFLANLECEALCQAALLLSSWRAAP

These are yes or no findings as the source states them, for the method shown. In cells and extracts the contact can be indirect. Some entries that bind do so weakly or less than the wild type. For part of these data: Where a sequence is shown, tags or fusion partners need not be part of it.

Take “ATR (ataxia-telangiectasia and Rad3-related), endogenous in HCT116 cells (from UniProt Q13535 1-2644)”: the binding entry in assay [1] and in [2] was “binds” each time. Take “ATR in the HSP90α co-IP (from UniProt Q13535 1-2644)”: the binding result in assay [3] is reported as “binds”. Regarding “GFP-PINK1-FL (HEK293T) (from UniProt Q9BXM7 78-581)”, the binding result in [4] is “binds”. With “GFP-PINK1-FL (U2OS) (from UniProt Q9BXM7 78-581)”, the binding result in assay [5] is recorded as “binds”. Take “PINK1, endogenous in N2A cells (from UniProt Q99MQ3 78-580)”: the binding result in [6] is on record as “binds”. As to “PINK1, endogenous in U2OS cells (from UniProt Q9BXM7 78-581)”, the binding entry in assay [7] is reported as “binds”.

B1: TOM40, endogenous in U2OS cells (protein, UniProt O96008 1-361)
chain: MGNVLAASSPPAGPPPPPAPALVGLPPPPPSPPGFTLPPLGGSLGAGTSTSRSSERTPGAATASASGAAEDGACGCLPNPGTFEECHRKCKELFPIQMEGVKLTVNKGLSNHFQVNHTVALSTIGESNYHFGVTYVGTKQLSPTEAFPVLVGDMDNSGSLNAQVIHQLGPGLRSKMAIQTQQSKFVNWQVDGEYRGSDFTAAVTLGNPDVLVGSGILVAHYLQSITPCLALGGELVYHRRPGEEGTVMSLAGKYTLNNWLATVTLGQAGMHATYYHKASDQLQVGVEFEASTRMQDTSVSFGYQLDLPKANLLFKGSVDSNWIVGATLEKKLPPLPLTLALGAFLNHRKNKFQCGFGLTIG
For B1, in assay [7], the binding entry is “binds”.

B2: HA-TOM40 (protein, UniProt O96008 1-361)
chain: B1 chain
On to B2, for which the binding entry in assay [8] was “binds”.

B3: TIM23, endogenous in U2OS cells (protein, UniProt O14925 1-209)
chain: MEGGGGSGNKTTGGLAGFFGAGGAGYSHADLAGVPLTGMNPLSPYLNVDPRYLVQDTDEFILPTGANKTRGRFELAFFTIGGCCMTGAAFGAMNGLRLGLKETQNMAWSKPRNVQILNMVTRQGALWANTLGSLALLYSAFGVIIEKTRGAEDDLNTVAAGTMTGMLYKCTGGLRGIARGGLTGLTLTSLYALYNNWEHMKGSLLQQSL
As for B3, the binding entry in [7] is reported as “binds”.

B4: HA-TIM23 (protein, UniProt O14925 1-209)
chain: B3 chain
As for B4, in assay [9], the binding entry is on record as “binds”.

B5: TOM22, endogenous in N2A cells (protein, UniProt Q9CPQ3 1-142)
chain: MAAAVAAAGAGEPLSPEELLPKAEAEKAEEELEEDDDDELDETLSERLWGLTEMFPERVRSAAGATFDLSLFVAQKMYRFSRAALWIGTTSFMILVLPVVFETEKLQMEQQQQLQQRQILLGPNTGLSGGMPGALPPLPGKM
B5: the binding entry in [6] was “binds”.
